Laboratory results: PubChem BioAssay AID1259405 (NCATS, 2018)

Test: 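Mouse-designed siRNAs used to find CHO productivity engineering targets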 (primary screen)
Cells: Chinese hamster CHO-K1 ovary cells with stable secreted eGFP expression
Reagents: single siRNA against mouse genes, 0.8 pmol siRNA per well (2 µl of 400 nM stock)
Timing: 3 days
Measurement: 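Percent of the per-plate non-targeting control median for intracellular GFP per well by laser scanning cytometry and for cell viability by ATP luminescence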
Direction: GFP, % of control: higher = more GFP per well, higher productivity; viability (ATP), % of control: higher = more viable cells (more ATP)
Rule for the call: 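a knock-down is called active if GFP reaches 120% or more of non-targeting control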
The deposit covers about 50,000 reagents; below is a part drawn at random. About 4,000 of all reagents (8%) count as active. 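Mouse siRNA library applied to hamster cells; one well for each siRNA.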 Reagents against one gene are numbered here. No sequences are given here.

Target gene	reagent	GFP, % of control	viability (ATP), % of control	call
Myom1	1	64.7	54.9	inactive
Myom1	2	50.4	59.1	inactive
Myom1	3	32.3	46.4	inactive
Or4f59	1	78.2	68.4	inactive
Or4f59	2	40.3	32.9	inactive
Or4f59	3	64.1	109	inactive
Rrs1	1	59.7	56.4	inactive
Rrs1	2	136	49.6	active
Rrs1	3	72.6	93.9	inactive
Dpf1	1	43.3	44.2	inactive
Dpf1	2	72.4	47.8	inactive
Dpf1	3	186	127	active
A830018L16Rik	1	18.9	27.8	inactive
A830018L16Rik	2	56.9	67.9	inactive
A830018L16Rik	3	63	88.6	inactive
Grm1	1	66.5	85.6	inactive
Grm1	2	90.2	85.2	inactive
Grm1	3	51.3	63.9	inactive
Klra4	1	52.1	59.7	inactive
Klra4	2	143	50.1	active
Klra4	3	162	75.2	active
Tlr7	1	71.7	41.9	inactive
Tlr7	2	65.7	40.7	inactive
Tlr7	3	41.6	35.1	inactive
Aprt	1	102	115	inactive
Aprt	2	45.6	70	inactive
Usp2	1	68.4	74.7	inactive
Usp2	2	112	90.7	inactive
Usp2	3	101	69.9	inactive
Ccl25	1	78.5	76.3	inactive
Ccl25	2	61.2	88.1	inactive
Nek2	1	101	78.6	inactive
Nek2	2	119	77.9	inactive
Nek2	3	90.5	79.5	inactive
Ttpa	1	71.7	84.2	inactive
Ttpa	2	87.1	94.7	inactive
Ttpa	3	56.1	94.9	inactive
Kcnma1	1	55.2	55.6	inactive
Kcnma1	2	75.6	105	inactive
Kcnma1	3	80	97.4	inactive
Cldn5	1	90.9	69.2	inactive
Cldn5	2	103	76.8	inactive
Cldn5	3	88.7	99.4	inactive
Ufsp1	1	75.1	116	inactive
Ufsp1	2	55.9	30.1	inactive
Ufsp1	3	103	124	inactive
Slc27a3	1	39	80	inactive
Slc27a3	2	58.5	55.2	inactive
Slc27a3	3	89.7	121	inactive
Or5b99	1	53.6	73.6	inactive
Or5b99	2	103	85.4	inactive
Or5b99	3	55.6	43.4	inactive
Foxred1	1	57	53.9	inactive
Foxred1	2	73	84.8	inactive
Foxred1	3	97.8	100	inactive
Stx17	1	74.3	61.9	inactive
Stx17	2	84.7	82.2	inactive
Stx17	3	116	68	inactive

Reformatted: results already given.
{"Target gene": "Tlr7", "reagent": 3, "GFP, % of control": 41.6, "viability (ATP), % of control": 35.1, "call": "inactive"}
{"Target gene": "Aprt", "reagent": 1, "GFP, % of control": 102, "viability (ATP), % of control": 115, "call": "inactive"}
{"Target gene": "Aprt", "reagent": 2, "GFP, % of control": 45.6, "viability (ATP), % of control": 70, "call": "inactive"}
{"Target gene": "Usp2", "reagent": 1, "GFP, % of control": 68.4, "viability (ATP), % of control": 74.7, "call": "inactive"}
{"Target gene": "Usp2", "reagent": 2, "GFP, % of control": 112, "viability (ATP), % of control": 90.7, "call": "inactive"}
{"Target gene": "Usp2", "reagent": 3, "GFP, % of control": 101, "viability (ATP), % of control": 69.9, "call": "inactive"}
{"Target gene": "Ccl25", "reagent": 1, "GFP, % of control": 78.5, "viability (ATP), % of control": 76.3, "call": "inactive"}
{"Target gene": "Ccl25", "reagent": 2, "GFP, % of control": 61.2, "viability (ATP), % of control": 88.1, "call": "inactive"}
